Record: PubChem BioAssay AID1259254 (NCATS, 2017)
Test: 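Gene knock-downs that lead to re-replication, shown by excess G2 DNA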 (primary screen). Cell system: human HCT116 colorectal cancer cells. Reagents: single siRNA against human genes. Duration: 3 days. Detection: 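Nuclei stained with Hoechst and imaged; cell-cycle phase assigned by DNA content; G2 share scaled per plate, non-targeting siRNA 0%, GMNN siRNA 100%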. Scale: G2 robust z-score and G2 cells, % of GMNN control: higher = more G2 cells, more excess DNA replication; raw share of cells in G2: higher = larger share of cells with G2 DNA content. Hit rule: 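Active siRNAs have a G2 robust z of 5 or more median absolute deviations over the median, which in these data means about 38% or higher of GMNN control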.
The whole screen tested about 59,000 reagents; below is a random part of them. About 1,550 of them (2.6%) were called active. 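G2 share is only a proxy for re-replication; each gene was hit by three separate siRNAs, and active genes were retested.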 Raw values are not corrected between plates. A number with no mark means an inactive call. The numbers tell different reagents against one gene apart. Not stated in the record: the amount of reagent.

gene | reagent no. | G2 robust z-score | G2 cells, % of GMNN control | raw share of cells in G2 (%)
SIGLEC15 | 1 | 2.06 | 17.4 | 8.56
SIGLEC15 | 2 | -0.13 | 2.05 | 4.39
SIGLEC15 | 3 | 0.0445 | 3.28 | 4.31
ADCY2 | 1 | -0.00276 | 2.95 | 5.09
ADCY2 | 2 | -0.0556 | 2.58 | 5.99
ADCY2 | 3 | -0.861 | -3.09 | 3.67
KRTAP12-1 | 1 | -1.03 | -4.29 | 2.46
KRTAP12-1 | 2 | -0.000275 | 2.97 | 5.01
KRTAP12-1 | 3 | -0.378 | 0.307 | 3.39
MED21 | 1 | 0.579 | 7.04 | 9.12
MED21 | 2 | -0.05 | 2.62 | 4.43
MED21 | 3 | -1 | -4.09 | 2.17
DEFB118 | 1 | 1.05 | 10.3 | 8.23
DEFB118 | 2 | -0.687 | -1.86 | 2.77
DEFB118 | 3 | 1.66 | 14.7 | 6.1
OR6T1 | 1 | -0.69 | -1.88 | 2.89
OR6T1 | 2 | -0.199 | 1.56 | 3.67
OR6T1 | 3 | -0.114 | 2.17 | 3.89
BTN2A1 | 1 | -0.167 | 1.8 | 7.09
BTN2A1 | 2 | 0.0189 | 3.1 | 4.93
BTN2A1 | 3 | 2.05 | 17.4 | 9.98
RBMS2 | 1 | 1.63 | 14.4 | 9.95
RBMS2 | 2 | -0.418 | 0.0251 | 4.69
RBMS2 | 3 | 2.66 | 21.7 | 11.4
ZIK1 | 1 | -1.11 | -4.84 | 1.42
ZIK1 | 2 | -0.455 | -0.231 | 3.09
ZIK1 | 3 | 4.04 | 31.4 | 14.5
RGS20 | 1 | -0.185 | 1.67 | 5.29
RGS20 | 2 | 2.12 | 17.9 | 11.5
RGS20 | 3 | 0.793 | 8.55 | 7.77
S100A11 | 1 | -0.463 | -0.292 | 4.88
S100A11 | 2 | 0.707 | 7.94 | 7.71
S100A11 | 3 | 0.389 | 5.71 | 6.04
SUB1 | 1 | -0.271 | 1.06 | 4.18
SUB1 | 2 | -0.739 | -2.23 | 4.73
SUB1 | 3 | -0.699 | -1.95 | 5.71
RFWD3 | 1 | -0.531 | -0.766 | 4.01
RFWD3 | 2 | -0.182 | 1.69 | 7.17
RFWD3 | 3 | 0.424 | 5.95 | 6.57
GDF11 | 1 | 1.49 | 13.4 | 11.4
GDF11 | 2 | 1.69 | 14.9 | 10.2
GDF11 | 3 | -0.522 | -0.708 | 3.15
CXCL2 | 1 | 0.0873 | 3.58 | 6.98
CXCL2 | 2 | -0.833 | -2.89 | 3.03
CXCL2 | 3 | -0.364 | 0.404 | 3.68
AHRR | 1 | -0.719 | -2.09 | 2.05
AHRR | 2 | -1.12 | -4.93 | 3.68
AHRR | 3 | -0.637 | -1.51 | 3.16
OR52A1 | 1 | 4.41 | 34 | 17.2
OR52A1 | 2 | -0.718 | -2.08 | 3.04
OR52A1 | 3 | -0.563 | -0.996 | 2.95
CES3 | 1 | 2.33 | 19.4 | 11.7
CES3 | 2 | 0.271 | 4.88 | 6.05
CES3 | 3 | 0.949 | 9.65 | 6.67
OR4C12 | 1 | 0.623 | 7.35 | 6.32
OR4C12 | 2 | 2.62 | 21.4 | 11.3
OR4C12 | 3 | -0.633 | -1.49 | 2.81
LYPD3 | 1 | 0.97 | 9.79 | 7.59
LYPD3 | 2 | 0.33 | 5.29 | 6.55
LYPD3 | 3 | -0.687 | -1.87 | 2.66
KXD1 | 1 | 0.611 | 7.26 | 7.74
KXD1 | 2 | 0.877 | 9.14 | 8.7
KXD1 | 3 | -0.885 | -3.26 | 1.84
FZD4 | 1 | -1.78 | -9.59 | 2.41
FZD4 | 2 | 0.645 | 7.5 | 7.14
FZD4 | 3 | 0.969 | 9.78 | 6.27
TRAPPC11 | 1 | -0.864 | -3.11 | 1.88
TRAPPC11 | 2 | 0.426 | 5.96 | 7.18
TRAPPC11 | 3 | -0.036 | 2.71 | 5.83
NAIP | 1 | 0.696 | 7.86 | 6.75
NAIP | 2 | -0.374 | 0.333 | 3.3
NAIP | 3 | -0.363 | 0.412 | 2.9
NAIP | 4 | 2.34 | 19.4 | 13.2
NAIP | 5 | 0.44 | 6.06 | 7.7
NAIP | 6 | -0.372 | 0.353 | 3.31
ADAT3 | 1 | -0.0809 | 2.4 | 5.05
ADAT3 | 2 | -0.506 | -0.592 | 3.15
ADAT3 | 3 | -0.923 | -3.53 | 0.787
NGEF | 1 | 0.681 | 7.76 | 7.33
NGEF | 2 | 2.07 | 17.5 | 11.5
NGEF | 3 | -0.891 | -3.3 | 2.15
FSTL4 | 1 | -0.478 | -0.394 | 3.4
FSTL4 | 2 | -1.07 | -4.53 | 3.97
FSTL4 | 3 | 2.57 | 21 | 12.2
RPS5 | 1 | 3.67 | 28.8 | 17.2
RPS5 | 2 | 0.524 | 6.66 | 6.85
RPS5 | 3 | 6.31 (active) | 47.3 | 20.5

Reformatted: 5 of the entries above.
{"gene": "CXCL2", "reagent no.": 1, "G2 robust z-score": 0.0873, "G2 cells, % of GMNN control": 3.58, "raw share of cells in G2 (%)": 6.98}
{"gene": "CXCL2", "reagent no.": 2, "G2 robust z-score": -0.833, "G2 cells, % of GMNN control": -2.89, "raw share of cells in G2 (%)": 3.03}
{"gene": "CXCL2", "reagent no.": 3, "G2 robust z-score": -0.364, "G2 cells, % of GMNN control": 0.404, "raw share of cells in G2 (%)": 3.68}
{"gene": "AHRR", "reagent no.": 1, "G2 robust z-score": -0.719, "G2 cells, % of GMNN control": -2.09, "raw share of cells in G2 (%)": 2.05}
{"gene": "AHRR", "reagent no.": 2, "G2 robust z-score": -1.12, "G2 cells, % of GMNN control": -4.93, "raw share of cells in G2 (%)": 3.68}
